Data reported in the supplement of paper PMC5949888.
Most values lie at the floor of the assay. Slopes are relative: functional sequences can read slightly below zero.

The substances below were run on Saccharomyces cerevisiae PS128 hsf1 delta, HSF1(1-493) fusion (assay: growth estimate (transactivation domain function in HSF1 fusion, heat-shock survival) (a.u. (slope of normalised read count over time)); higher = stronger growth at 37°C, i.e. more transactivation activity). Settings: library: random library.

| Substance | growth estimate |
| --- | --- |
| VSKGESSPNYVSRETERPES | < -0.25 |
| PRTINHFPQQVGYEEHSPGL | < -0.25 |
| YSQGIRLAFIVRASRCPIAK | < -0.25 |
| QFVCGLVRPIGECTSGLKRI | < -0.25 |
| ARRYSKKFRVGSPPGANCQV | < -0.25 |
| TLYFMQDACDIRERKIAPGR | < -0.25 |
| SRLILSIYWELGL | < -0.25 |
| SVTMVTTNR | < -0.25 |
| LLKGVGLPRAVLHWKASSGA | < -0.25 |
| RGGMRSE | < -0.25 |
| RSKPPWLNVLSSVATLVARP | < -0.25 |
| KSGKELGWIERMQKALSDHG | < -0.25 |
| CKGSGPRVTCRYTQTLYYRP | < -0.25 |
| AIVTMLSRAVLIARRIWLML | < -0.25 |
| PRVVAYAGMGRAPWAVRM | < -0.25 |
| NLTCKRQSCSVG | < -0.25 |
| MLWSHPRCQSNKVCMHYALG | -0.243 |
| EWDLTYGRGLNTSTTRLGGR | < -0.25 |
| GWSERLRALSYLQVCIGVHR | < -0.25 |
| SGEGVY | < -0.25 |
| SYAQGCGDRRRFHNTRSLGG | < -0.25 |
| PPDSSVTAPMRKVSLRFSRG | < -0.25 |
| PSTGNIAPALLWLQR | < -0.25 |
| GWYSAHMGRVIIHWFWPY | < -0.25 |
| ETGFASTIAAGLEGGGLGES | < -0.25 |

Given bar-delimited: part of the list above.
Substance | growth estimate
YSQGIRLAFIVRASRCPIAK | < -0.25
QFVCGLVRPIGECTSGLKRI | < -0.25
ARRYSKKFRVGSPPGANCQV | < -0.25
TLYFMQDACDIRERKIAPGR | < -0.25

The results go on:

| Substance | growth estimate |
| --- | --- |
| SGGDGE | < -0.25 |
| HYQERR | < -0.25 |
| MRVCFLSKWRG | < -0.25 |
| GVVPRITPGERTAVLAHSPE | < -0.25 |
| RSTE | < -0.25 |
| AYQLGV | < -0.25 |
| WYGNPWGLRFRARKPYLDDM | < -0.25 |
| SVSTGIFC | < -0.25 |
| MIY | < -0.25 |
| GRSF | < -0.25 |
| QKAGIIVCRAPSFINTRRHH | < -0.25 |
| ALSVTRCGSVRTQGGCWRSQ | < -0.25 |
| QPFARVCCTASVCMTPPPRS | < -0.25 |
| DKF | < -0.25 |
| GHIKGVLCTV | < -0.25 |
| WWSGDESGPFLVLSYRTPSL | < -0.25 |
| CSADRVGNVRREAM | < -0.25 |
| KLRIARESLGTCDRLGRVFR | < -0.25 |
| GISGYVGVYGPSQALFARTR | < -0.25 |
| FSEL | < -0.25 |
| RSPW | < -0.25 |
| SGIISIRL | < -0.25 |
| EPHIKRGVNSLRVEKPHPLA | < -0.25 |
| SACPGGWNPDSSAMMPRRAK | < -0.25 |
| QLSDFLITEE | -0.174 |

| Substance | growth estimate |
| --- | --- |
| KPAV | < -0.25 |
| LMAPRRSTSKQVRRKTCALS | -0.245 |
| CKW | < -0.25 |
| HEKRKREWPKLCLTLCRGGY | < -0.25 |
| DARYWHTLR | < -0.25 |
| DMGPRQEASGYLTLFSSAHA | < -0.25 |
| AWRSAEDNGSQLC | < -0.25 |
| RREGLFTGIVCTGIAPSTHT | < -0.25 |
| SPWDNLT | < -0.25 |
| QLRSGEARIVQPLTYGPRLI | < -0.25 |
| ESESEAGTC | < -0.25 |
| SQAPSVMQKNHCIRTPRF | < -0.25 |
| QNTGFAQ | < -0.25 |
| GNSAVQASNRSAAQSSGTAL | < -0.25 |
| QPRTPRWSAGLRERPTLVKP | < -0.25 |
| RWSL | < -0.25 |
| SASGLRCSSVRINTKSRGPS | < -0.25 |
| GSRER | < -0.25 |
| PVW | < -0.25 |
| SPYGLSRKGLMSRVQEGHFT | < -0.25 |
| LENPDHSFQDVCFKVRALSR | < -0.25 |
| RMVAGSRAVNRPRQAVLALI | < -0.25 |
| HEHSPTGTVRKK | < -0.25 |
| ATGPGRGQEATIWRTGIGCH | < -0.25 |
| FHYSVSFGPGKLVVRPAIRG | < -0.25 |

| Substance | growth estimate |
| --- | --- |
| FSVKNN | < -0.25 |
| FMVGWMR | < -0.25 |
| LLAIVTQPCP | < -0.25 |
| LRSHVGWAEGYRSETIAVHV | < -0.25 |
| GTIR | < -0.25 |
| LRAHIKGRSTNLV | < -0.25 |
| INDPWCSRTPPCVLRSLHQA | < -0.25 |
| YPQTACQPRPM | < -0.25 |
| VFLTSVTLLPVAQGPQV | < -0.25 |
| IPLLQLTVNRRECRTLNRRI | < -0.25 |
| VKVRYLMCYRGY | < -0.25 |
| SRGSMTKSLSTLGPPNDDSE | < -0.25 |
| MRYVGPVRASLERKDCV | < -0.25 |
| WGHRGMEWALAKRRLRGSHY | < -0.25 |
| KGLLIRQARTCVWN | < -0.25 |
| CWGKTSGSLK | < -0.25 |
| VDLFGAVGSFSVELK | < -0.25 |
| TCADPVG | < -0.25 |
| GYIRVPVIPRGYAIA | < -0.25 |
| LPSTRRVTAGVVKYCRTGRI | < -0.25 |
| LGHRSGKKRLSVSMFA | < -0.25 |
| PKVRVLSFADTSP | < -0.25 |
| GIRNRAGQPKLFCIASIWAM | < -0.25 |
| VGESARLGCTERFWAMLSET | < -0.25 |
| INAAVG | < -0.25 |

| Substance | growth estimate |
| --- | --- |
| HCPLARGVR | -0.245 |
| VTAELWQEGVNKRCMTSGAG | < -0.25 |
| GYQAGLGIGPKTTVDSEWIW | -0.183 |
| ASDVFGA | < -0.25 |
| TSIISGTTMAFALTRGKGTY | < -0.25 |
| SGSSVMDSP | < -0.25 |
| LCRQLVLLGLMRKHGEYDDE | < -0.25 |
| AFSPQRPSVLISYRVRGVRR | < -0.25 |
| MTRHSNLNELSDTLTVPISF | -0.231 |
| DSVVAARGLRGK | < -0.25 |
| ESAYRYEACRLRLGGACGFA | < -0.25 |
| PSFDGFVPNGWGSHGCKVRM | < -0.25 |
| NSDIRKGPIHSRTARPGTEF | < -0.25 |
| RPIPAI | < -0.25 |
| RDRHAV | < -0.25 |
| RGYRDY | < -0.25 |
| FGPLSKRVHCFVGNGASYRG | < -0.25 |
| TEQASGSGHRYWYFSRDDRL | < -0.25 |
| RTSPYHLDSCNFAYSRRSVE | < -0.25 |
| EANQAVEHDGGSWIPHLFRT | < -0.25 |
| VPEWYCARLLVLLAVFSILT | < -0.25 |
| GEAMLYPGARSPSFAGLPPD | < -0.25 |
| LKVV | < -0.25 |
| VLNNVIIFRNGLCCVHRSGL | < -0.25 |
| RVRDEGRSQPRG | < -0.25 |

Seven entries picked at random from the list so far:

| Substance | growth estimate |
| --- | --- |
| MTRHSNLNELSDTLTVPISF | -0.231 |
| RDRHAV | < -0.25 |
| TEQASGSGHRYWYFSRDDRL | < -0.25 |
| EANQAVEHDGGSWIPHLFRT | < -0.25 |
| GEAMLYPGARSPSFAGLPPD | < -0.25 |
| GYQAGLGIGPKTTVDSEWIW | -0.183 |
| SGSSVMDSP | < -0.25 |

Further records

| Substance | growth estimate |
| --- | --- |
| RHAS | < -0.25 |
| EAIREDGRELLAFRHCPRTA | < -0.25 |
| KKGGLSNPGV | -0.245 |
| CRSFSDRVRCGSGLR | -0.25 |
| IRGIWENNESYLSSLL | < -0.25 |
| MWSPTRGQ | < -0.25 |
| VSRGSSYLQLTLGK | < -0.25 |
| GVRRAVSSYGRVKRLTRPTK | < -0.25 |
| CDVNVNYLVGYHK | < -0.25 |
| RVRGLHVLAECFFVRRIRPG | < -0.25 |
| RWYSRDRLWGERSGFSCHLS | < -0.25 |
| RHSLAPALYSLDFQ | < -0.25 |
| QLVDHDQSVCLHVTNFQGGW | -0.245 |
| SQGFSKWAVRVSRLVGSVVF | < -0.25 |
| ERQTPTANRFSIVKRMVGNA | < -0.25 |
| VRTALKASFAQIVVAFKFFV | < -0.25 |
| GTCVVCT | < -0.25 |
| TTVVN | < -0.25 |
| STSRPTKVCAVRNQD | -0.246 |
| RAGVWPRRAGAKRLGISDLR | < -0.25 |
| LRSRGTLSCECVCGVLTVVT | -0.243 |
| WTGCGSRQVSKKVVNERAMR | < -0.25 |
| ISNPWWHTPRIA | < -0.25 |
| IQYY | < -0.25 |
| SGWSSSAHRRRNCFLHTGGD | < -0.25 |

| Substance | growth estimate |
| --- | --- |
| SQLGRP | < -0.25 |
| SGRRQRGLSVPSTGRHPRRR | < -0.25 |
| VVRLAEGNSDPRTVSQYLRT | < -0.25 |
| FLLSRARGEEPAISKPDESL | < -0.25 |
| VGSFGIMRGQFASDSNPDVS | < -0.25 |
| RNTKHHC | < -0.25 |
| QHIIRTRLTWGTRSLALNPL | < -0.25 |
| MRGTMVRGNNIRG | < -0.25 |
| VSRYRTEGACMAGQG | < -0.25 |
| VLIPLLGLQRWKTRSVRDRL | < -0.25 |
| QVRGDPIGGRSCSPRTRWLA | < -0.25 |
| GCKFIRKGRPMPQVITDRSK | < -0.25 |
| VFLERAQRSRY | < -0.25 |
| RFSLGRMC | < -0.25 |
| IWFTHPSVCILVNKIRFPVP | < -0.25 |
| ALVARASPCSSGYCNMKIVT | < -0.25 |
| KVQASTRLGASQHFKFFLSG | < -0.25 |
| SSVSEVIGPAPDRRREQIDT | < -0.25 |
| PSAV | < -0.25 |
| DSCRTSVPWPTNQWTVATLK | < -0.25 |
| PQTASWLARKRS | < -0.25 |
| GGRLRSTNALDPGNGLRLER | < -0.25 |
| LAPVDSCRGTSGDGSNGVPV | < -0.25 |
| IQVRCVELVRHMVCSTAVRR | < -0.25 |
| LGECGIATWLLQPRLL | < -0.25 |

| Substance | growth estimate |
| --- | --- |
| IRV | < -0.25 |
| FQYCKFITHVLLDLHGRLLT | < -0.25 |
| NDSLT | < -0.25 |
| DDFT | < -0.25 |
| PRIER | < -0.25 |
| LLVRRVGDTYFKIIG | < -0.25 |
| LMGVSRAEMDRDLLRAVKGT | < -0.25 |
| LWIRYPPLRVLMALTKIILV | < -0.25 |
| RLELTGVHGIKMHGSNVVGW | < -0.25 |
| TSTKRWVKDKQKPKHIGQKP | < -0.25 |
| WRILPMLT | < -0.25 |
| GHKHHGIRRRRLR | < -0.25 |
| LFVVRIK | -0.141 |
| CIGGVLG | < -0.25 |
| PTLADSGHMA | < -0.25 |
| NTGGDCWRYYRKGLTRALWD | < -0.25 |
| QGMNMYSAGFRRSPGILDRY | < -0.25 |
| NPAALSWTASDNHGTRLERP | < -0.25 |
| CSRDAH | < -0.25 |
| LANYRDQTGL | < -0.25 |
| AFYEG | < -0.25 |
| LSLVRGRKN | < -0.25 |
| APRVRRWALV | < -0.25 |

Look-ups from above:
LWIRYPPLRVLMALTKIILV – growth estimate: < -0.25
AFYEG – growth estimate: < -0.25
CSRDAH – growth estimate: < -0.25
